# Record: PubChem BioAssay AID743454 (Peter MacCallum Cancer Centre, 2014)
# Aim: 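Search for knock-downs that restore vorinostat killing in resistant colon cancer cells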 (primary screen)
# System: human HCT116-VR colon cancer cells, selected for vorinostat resistance
# Knock-down reagent: siRNA pool against human genes, 40 nM siRNA pool
# Timing: vorinostat for 24 h, read-out about 72 h after transfection
# Challenge: vorinostat at 2.5 µM final
# Detection: 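Cell viability by CellTiter-Fluor and caspase 3/7 activity by luminescence, each scaled to mock wells per plate, duplicates averaged, then robust z-scored over all plates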
# Scale: viability robust z-score: higher = more viable cells than screen typical; caspase robust z-score: higher = more caspase 3/7 activity than screen typical
# Rule for the call: 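a knock-down is a hit when classed RV1 or RV2 for lowered viability, or CA1 or CA2 for caspase activation; those lethal without drug were dropped; hits were retested singly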
# The deposit covers about 18,000 reagents; shown is an unselected part. Over the whole deposit, 450 (2.5%) got an active call. 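Single biological run; no consistent viability z cut-off exists, so the class columns, not z-scores, define the calls.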 Entries without a mark were called inactive. No sequences are given here.
The opening 2 records as a preview:
gene,viability hit class,caspase hit class,viability robust z-score,caspase robust z-score
VAT1L,no change,no change,-0.42,-0.22
RASA1,no change,no change,0.28,-1.02

The list itself, from the start:
gene,viability hit class,caspase hit class,viability robust z-score,caspase robust z-score
VAT1L,no change,no change,-0.42,-0.22
RASA1,no change,no change,0.28,-1.02
OR4K5,no change (active),CA1 (caspase activation),-1.52,5.21
C12orf60,no change,no change,0.4,2.15
MPRIP,no change,no change,0.18,-0.44
TMIGD2,no change,no change,0.93,0.7
AMTN,no change,no change,-0.01,1.2
SEC14L3,no change,no change,0.84,-0.1
ANKDD1A,no change,no change,0.04,0.26
ZNF454,no change,no change,-0.66,0.46
PILRA,no change,no change,0.45,-0.51
MTERF2,no change,no change,0.3,3.56
HNF1A,no change,no change,0.7,0.94
OR11H6,no change,no change,-0.91,-0.2
FANCG,no change,no change,0.8,1.25
HYLS1,no change,no change,-0.94,0.29
C22orf31,no change,no change,1.58,0.86
RNF113A,no change,no change,0.88,-0.03
RFXANK,no change,no change,0.24,-0.07
PFDN2,no change,no change,0.78,0.6
CMC1,no change,no change,-1,4.17
DAW1,no change,no change,1.73,-0.72
TREML1,no change,no change,-1.06,1.43
